# Measurements reported in the supplement of paper PMC10849652.
# Chains of the proteins cited; added tags and fusions are not shown. Lines headed by an entry give the natural chain unless they say otherwise; changes in a name come on top.
# UniProt P55196: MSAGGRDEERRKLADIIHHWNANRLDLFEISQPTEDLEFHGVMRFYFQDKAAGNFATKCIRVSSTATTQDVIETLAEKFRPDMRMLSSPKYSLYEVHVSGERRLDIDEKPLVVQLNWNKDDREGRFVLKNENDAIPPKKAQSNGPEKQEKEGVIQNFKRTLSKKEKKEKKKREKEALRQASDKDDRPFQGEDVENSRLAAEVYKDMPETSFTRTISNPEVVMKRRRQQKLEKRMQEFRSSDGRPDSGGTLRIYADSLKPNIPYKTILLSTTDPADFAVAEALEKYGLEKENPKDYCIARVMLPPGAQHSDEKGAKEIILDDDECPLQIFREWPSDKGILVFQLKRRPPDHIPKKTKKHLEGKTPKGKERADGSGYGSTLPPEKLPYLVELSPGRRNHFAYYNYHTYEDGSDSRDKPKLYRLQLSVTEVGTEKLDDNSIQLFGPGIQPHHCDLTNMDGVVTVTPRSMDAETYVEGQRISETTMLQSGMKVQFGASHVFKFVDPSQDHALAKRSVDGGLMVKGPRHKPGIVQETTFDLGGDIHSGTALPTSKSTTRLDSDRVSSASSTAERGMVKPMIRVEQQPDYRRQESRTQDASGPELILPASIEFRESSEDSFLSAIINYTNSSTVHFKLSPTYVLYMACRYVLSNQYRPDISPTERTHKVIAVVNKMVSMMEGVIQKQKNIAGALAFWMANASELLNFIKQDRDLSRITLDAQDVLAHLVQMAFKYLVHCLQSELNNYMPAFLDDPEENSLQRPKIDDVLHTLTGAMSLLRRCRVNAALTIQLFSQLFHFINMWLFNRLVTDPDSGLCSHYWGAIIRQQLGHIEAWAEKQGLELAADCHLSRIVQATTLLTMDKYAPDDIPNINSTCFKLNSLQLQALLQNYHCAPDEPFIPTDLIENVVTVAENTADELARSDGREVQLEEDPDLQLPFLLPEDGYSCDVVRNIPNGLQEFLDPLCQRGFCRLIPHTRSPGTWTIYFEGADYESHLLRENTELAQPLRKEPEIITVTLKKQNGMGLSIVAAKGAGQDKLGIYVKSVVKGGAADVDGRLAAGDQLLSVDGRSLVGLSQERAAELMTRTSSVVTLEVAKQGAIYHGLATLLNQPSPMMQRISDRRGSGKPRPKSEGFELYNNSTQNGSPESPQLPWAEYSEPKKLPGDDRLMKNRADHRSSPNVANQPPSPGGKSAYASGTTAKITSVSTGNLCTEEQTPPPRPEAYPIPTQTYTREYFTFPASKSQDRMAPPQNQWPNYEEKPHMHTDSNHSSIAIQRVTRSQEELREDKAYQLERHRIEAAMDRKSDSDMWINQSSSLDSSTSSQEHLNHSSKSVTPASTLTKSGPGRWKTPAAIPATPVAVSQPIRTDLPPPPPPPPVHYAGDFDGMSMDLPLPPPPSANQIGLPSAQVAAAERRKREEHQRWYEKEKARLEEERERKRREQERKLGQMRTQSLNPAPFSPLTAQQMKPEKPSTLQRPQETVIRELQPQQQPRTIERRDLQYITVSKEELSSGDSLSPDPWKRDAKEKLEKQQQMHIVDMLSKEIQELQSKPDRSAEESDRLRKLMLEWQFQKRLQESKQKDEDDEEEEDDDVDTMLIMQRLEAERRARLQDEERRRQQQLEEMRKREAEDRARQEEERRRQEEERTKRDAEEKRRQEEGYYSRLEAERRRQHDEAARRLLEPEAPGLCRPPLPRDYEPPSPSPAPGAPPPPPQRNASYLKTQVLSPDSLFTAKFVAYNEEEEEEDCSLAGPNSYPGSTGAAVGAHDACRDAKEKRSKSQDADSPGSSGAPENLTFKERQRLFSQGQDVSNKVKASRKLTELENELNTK
# UniProt Q02952: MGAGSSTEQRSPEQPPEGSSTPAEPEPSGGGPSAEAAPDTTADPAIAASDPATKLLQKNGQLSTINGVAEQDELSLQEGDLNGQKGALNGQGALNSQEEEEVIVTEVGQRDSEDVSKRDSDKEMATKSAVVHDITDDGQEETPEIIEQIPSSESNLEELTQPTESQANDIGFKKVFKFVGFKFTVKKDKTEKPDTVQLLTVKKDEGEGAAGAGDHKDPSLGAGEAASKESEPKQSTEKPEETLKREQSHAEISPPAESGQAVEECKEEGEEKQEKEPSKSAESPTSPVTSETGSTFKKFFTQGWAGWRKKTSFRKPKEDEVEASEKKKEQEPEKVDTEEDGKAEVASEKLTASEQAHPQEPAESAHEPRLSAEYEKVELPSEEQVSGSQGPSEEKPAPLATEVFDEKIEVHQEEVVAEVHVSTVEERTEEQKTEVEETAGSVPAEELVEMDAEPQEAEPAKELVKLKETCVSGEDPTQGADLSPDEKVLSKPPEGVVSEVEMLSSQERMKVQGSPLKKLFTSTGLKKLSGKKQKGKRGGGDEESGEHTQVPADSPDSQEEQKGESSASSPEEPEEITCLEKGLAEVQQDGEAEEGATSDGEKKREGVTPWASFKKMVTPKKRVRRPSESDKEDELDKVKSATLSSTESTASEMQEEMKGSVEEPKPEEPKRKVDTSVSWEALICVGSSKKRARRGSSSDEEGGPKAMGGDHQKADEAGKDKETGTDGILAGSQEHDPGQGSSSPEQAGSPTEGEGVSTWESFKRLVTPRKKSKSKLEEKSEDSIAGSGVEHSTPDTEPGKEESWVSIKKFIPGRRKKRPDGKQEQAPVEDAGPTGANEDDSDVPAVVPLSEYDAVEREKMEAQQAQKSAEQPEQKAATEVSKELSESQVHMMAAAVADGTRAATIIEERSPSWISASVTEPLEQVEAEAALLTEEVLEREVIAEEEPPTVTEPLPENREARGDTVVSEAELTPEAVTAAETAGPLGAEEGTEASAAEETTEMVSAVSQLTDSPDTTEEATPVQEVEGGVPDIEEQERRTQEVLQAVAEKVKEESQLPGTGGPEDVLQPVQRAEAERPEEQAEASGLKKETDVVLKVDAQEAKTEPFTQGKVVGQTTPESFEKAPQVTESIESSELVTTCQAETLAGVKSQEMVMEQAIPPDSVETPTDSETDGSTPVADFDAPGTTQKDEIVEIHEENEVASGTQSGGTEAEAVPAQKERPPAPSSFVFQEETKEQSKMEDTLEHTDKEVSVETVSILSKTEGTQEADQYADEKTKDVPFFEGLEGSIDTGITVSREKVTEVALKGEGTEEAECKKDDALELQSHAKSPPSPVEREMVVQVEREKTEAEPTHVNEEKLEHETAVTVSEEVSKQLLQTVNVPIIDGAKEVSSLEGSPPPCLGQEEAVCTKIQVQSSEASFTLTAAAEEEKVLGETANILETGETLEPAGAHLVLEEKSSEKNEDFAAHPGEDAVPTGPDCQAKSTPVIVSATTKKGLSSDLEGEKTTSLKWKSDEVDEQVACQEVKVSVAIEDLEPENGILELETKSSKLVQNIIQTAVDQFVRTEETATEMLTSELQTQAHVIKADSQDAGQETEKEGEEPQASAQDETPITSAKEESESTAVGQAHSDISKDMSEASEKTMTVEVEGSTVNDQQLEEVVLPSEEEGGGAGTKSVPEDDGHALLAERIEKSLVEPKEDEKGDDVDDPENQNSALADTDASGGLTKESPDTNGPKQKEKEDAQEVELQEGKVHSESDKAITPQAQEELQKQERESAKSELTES
# UniProt Q9H6U8: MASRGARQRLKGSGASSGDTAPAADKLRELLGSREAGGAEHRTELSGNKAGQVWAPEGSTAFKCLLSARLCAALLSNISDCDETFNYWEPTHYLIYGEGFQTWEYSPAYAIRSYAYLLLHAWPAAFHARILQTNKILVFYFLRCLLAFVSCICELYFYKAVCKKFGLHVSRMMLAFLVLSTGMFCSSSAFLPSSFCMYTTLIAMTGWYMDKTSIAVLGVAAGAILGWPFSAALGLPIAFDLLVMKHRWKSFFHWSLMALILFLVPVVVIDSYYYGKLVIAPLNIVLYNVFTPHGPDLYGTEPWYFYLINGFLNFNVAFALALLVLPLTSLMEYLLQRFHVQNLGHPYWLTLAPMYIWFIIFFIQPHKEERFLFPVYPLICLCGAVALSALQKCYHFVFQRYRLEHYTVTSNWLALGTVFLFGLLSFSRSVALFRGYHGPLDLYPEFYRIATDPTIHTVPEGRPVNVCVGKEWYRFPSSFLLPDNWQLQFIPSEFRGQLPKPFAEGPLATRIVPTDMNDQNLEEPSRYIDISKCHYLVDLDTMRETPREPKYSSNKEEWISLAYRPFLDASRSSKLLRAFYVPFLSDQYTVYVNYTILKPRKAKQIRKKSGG
# UniProt Q9Y303: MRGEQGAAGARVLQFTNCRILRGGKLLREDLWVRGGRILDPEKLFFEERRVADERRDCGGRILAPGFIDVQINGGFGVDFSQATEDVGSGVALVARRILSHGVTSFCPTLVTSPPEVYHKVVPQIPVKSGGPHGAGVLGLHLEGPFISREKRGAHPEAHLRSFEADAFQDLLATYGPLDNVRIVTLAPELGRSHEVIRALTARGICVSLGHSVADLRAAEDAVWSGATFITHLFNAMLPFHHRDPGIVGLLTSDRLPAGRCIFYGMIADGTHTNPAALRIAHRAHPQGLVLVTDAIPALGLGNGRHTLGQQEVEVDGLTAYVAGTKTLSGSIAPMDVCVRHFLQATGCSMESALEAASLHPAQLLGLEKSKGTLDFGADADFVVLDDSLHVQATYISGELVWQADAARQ
# UniProt Q2TAA5: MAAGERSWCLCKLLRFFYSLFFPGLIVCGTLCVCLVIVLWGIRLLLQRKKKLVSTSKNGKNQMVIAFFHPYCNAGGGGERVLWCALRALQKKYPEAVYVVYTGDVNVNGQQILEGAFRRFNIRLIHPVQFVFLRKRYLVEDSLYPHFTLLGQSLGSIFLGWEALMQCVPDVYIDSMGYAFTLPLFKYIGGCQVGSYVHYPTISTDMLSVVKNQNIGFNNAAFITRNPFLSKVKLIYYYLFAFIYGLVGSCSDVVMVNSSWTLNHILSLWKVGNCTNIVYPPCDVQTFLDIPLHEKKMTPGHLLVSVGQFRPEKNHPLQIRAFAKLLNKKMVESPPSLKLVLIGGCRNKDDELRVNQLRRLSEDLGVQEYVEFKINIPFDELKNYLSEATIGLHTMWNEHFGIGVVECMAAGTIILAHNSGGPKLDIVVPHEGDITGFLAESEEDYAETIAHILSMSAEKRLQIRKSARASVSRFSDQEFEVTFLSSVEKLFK
# UniProt Q9UIJ7: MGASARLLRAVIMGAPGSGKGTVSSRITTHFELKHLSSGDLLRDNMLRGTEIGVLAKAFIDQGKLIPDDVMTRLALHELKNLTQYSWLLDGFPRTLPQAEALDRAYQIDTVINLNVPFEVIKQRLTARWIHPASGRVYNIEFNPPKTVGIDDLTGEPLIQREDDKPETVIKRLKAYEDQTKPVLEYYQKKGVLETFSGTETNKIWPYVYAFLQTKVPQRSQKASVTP
# UniProt O43865, whole entry, looked up: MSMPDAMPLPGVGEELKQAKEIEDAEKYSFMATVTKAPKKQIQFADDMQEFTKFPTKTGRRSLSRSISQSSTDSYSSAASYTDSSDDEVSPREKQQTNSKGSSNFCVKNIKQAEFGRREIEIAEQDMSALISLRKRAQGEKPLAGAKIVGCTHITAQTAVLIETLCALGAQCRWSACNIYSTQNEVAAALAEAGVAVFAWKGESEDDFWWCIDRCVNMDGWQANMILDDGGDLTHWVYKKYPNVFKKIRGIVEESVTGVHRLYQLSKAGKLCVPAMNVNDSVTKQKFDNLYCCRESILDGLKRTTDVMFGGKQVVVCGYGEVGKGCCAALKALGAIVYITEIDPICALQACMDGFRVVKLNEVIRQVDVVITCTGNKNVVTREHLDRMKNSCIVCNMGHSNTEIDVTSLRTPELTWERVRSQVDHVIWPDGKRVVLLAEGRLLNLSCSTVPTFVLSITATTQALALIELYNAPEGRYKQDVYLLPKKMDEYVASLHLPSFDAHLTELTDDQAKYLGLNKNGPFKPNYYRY
# UniProt P04075: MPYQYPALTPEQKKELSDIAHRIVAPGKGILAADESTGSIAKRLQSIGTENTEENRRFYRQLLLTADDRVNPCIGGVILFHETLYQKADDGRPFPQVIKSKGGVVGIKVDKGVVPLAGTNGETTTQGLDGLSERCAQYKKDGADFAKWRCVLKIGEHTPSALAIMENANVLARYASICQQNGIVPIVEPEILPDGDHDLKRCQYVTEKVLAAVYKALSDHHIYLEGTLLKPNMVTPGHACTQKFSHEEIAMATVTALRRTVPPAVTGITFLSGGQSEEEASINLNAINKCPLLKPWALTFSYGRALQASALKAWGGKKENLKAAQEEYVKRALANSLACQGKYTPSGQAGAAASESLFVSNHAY
# UniProt Q3KRA9: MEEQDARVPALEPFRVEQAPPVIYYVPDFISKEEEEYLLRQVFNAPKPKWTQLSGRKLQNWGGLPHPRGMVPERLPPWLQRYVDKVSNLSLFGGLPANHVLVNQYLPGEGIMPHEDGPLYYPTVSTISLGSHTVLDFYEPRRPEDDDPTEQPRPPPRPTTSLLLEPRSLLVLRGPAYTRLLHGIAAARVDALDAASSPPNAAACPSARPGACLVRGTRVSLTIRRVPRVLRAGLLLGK
# The list shows a part of the results.
# How the values were obtained:
# Test in all cases: log2 fold change, soluble protein after heating vs DMSO (PISA); higher = thermal stabilisation; K562 cells, 10 uM, 30 min; active = over 0.2 and 3.5 SD of the protein, either way, in both replicates (recomputed)
# [1] = compound: Cc1ccc(NC(=O)c2ccc(CN3CC[C@H](N(C)C)C3)c(C(F)(F)F)c2)cc1Nc1nccc(-c2cncnc2)n1 [bafetinib]
# Procedure, shortened: (§1)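 K562 cells at 2×10^6 cells/mL were treated for 30 min with 10 μM compound, and aliquots were heated for 3 min over 48°C-58°C before pooling. Extraction used PBS with 0.5% NP-40 at 4°C, and soluble protein was the supernatant after 21,000xg for 90 min, measured by TMTpro 16plex LC-MS/MS with channel sums equalised. Thermal stability values, relative to control samples and from duplicates, are log2 fold changes.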
# [2] = compound: Cc1cccc(CC(=O)N2CCc3c2ccc(-c2cn(C)c4ncnc(N)c24)c3F)n1
# Procedure, shortened: as §1
# [3] = compound: Cc1cn(-c2cc(NC(=O)c3ccc(C)c(Nc4nccc(-c5cccnc5)n4)c3)cc(C(F)(F)F)c2)cn1 [nilotinib]
# Procedure, shortened: as §1
# [4] = compound: Cc1nc(Nc2n[nH]c3c2CN(C(=O)N[C@H](CN(C)C)c2ccccc2)C3(C)C)c2sccc2n1
# Procedure, shortened: as §1
# [5] = compound: Cc1nc(Nc2ncc(C(=O)Nc3c(C)cccc3Cl)s2)cc(N2CCN(CCO)CC2)n1 [dasatinib]
# Procedure, shortened: as §1
# [6] = compound: Cc1ncc(-c2ccnc(Nc3ccc(S(C)(=O)=O)cc3)n2)n1C(C)C
# Procedure, shortened: as §1
# [7] = compound: Cn1cc(-c2ccc3c(c2)CCN3C(=O)Cc2cccc(C(F)(F)F)c2)c2c(N)ncnc21
# Procedure, shortened: as §1
# [8] = compound: Cn1cc(-c2ccc3nnc(C(F)(F)c4ccc5ncccc5c4)n3n2)cn1
# Procedure, shortened: as §1
# [9] = compound: Cn1cncc1[C@@](N)(c1ccc(Cl)cc1)c1ccc2c(c1)c(-c1cccc(Cl)c1)cc(=O)n2C [tipifarnib]
# Procedure, shortened: as §1
# [10] = compound: FC(F)(F)c1ccc(/C=C/c2nc(COc3ccc(CCCCn4ccnn4)cc3)co2)cc1 [mubritinib]
# Procedure, shortened: as §1
# [11] = compound: NC(=O)Nc1cc(-c2cccc(F)c2)sc1C(=O)N[C@H]1CCCNC1
# Procedure, shortened: as §1
# [12] = compound: NC(=O)c1cnc(N[C@@H]2CCCC[C@@H]2N)nc1Nc1cccc(-n2nccn2)c1
# Procedure, shortened: as §1
# [13] = compound: NC1(c2ccc(-c3nc4ccn5c(=O)[nH]nc5c4cc3-c3ccccc3)cc2)CCC1
# Procedure, shortened: as §1
# [14] = compound: NCC(=O)Nc1ccc(-n2nc(C(F)(F)F)cc2-c2ccc3c(ccc4ccccc43)c2)cc1
# Procedure, shortened: as §1
# [15] = compound: Nc1ccccc1NC(=O)c1ccc(CNC(=O)OCc2cccnc2)cc1 [entinostat]
# Procedure, shortened: as §1
# [16] = compound: O=C(CCCCCCC(=O)Nc1ccccc1)NO [vorinostat]
# Procedure, shortened: as §1
# [17] = compound: O=C(CCCCCCNC(=O)c1cnc(N(c2ccccc2)c2ccccc2Cl)nc1)NO [citarinostat]
# Procedure, shortened: as §1
# [18] = compound: O=C(O)c1ccc2c(c1)nc(Nc1cccc(Cl)c1)c1ccncc12 [silmitasertib]
# Procedure, shortened: as §1
# [19] = compound: O=C1NC(=O)C(c2cnc3ccccn23)=C1c1cn2c3c(cc(F)cc13)CN(C(=O)N1CCCCC1)CC2
# Procedure, shortened: as §1
# [20] = compound: c1cc(OCCN2CCCCC2)cc(-c2n[nH]c3ccc(-c4nnc[nH]4)cc23)c1
# Procedure, shortened: as §1
Target,log2 fold change [1],log2 fold change [2],log2 fold change [3],log2 fold change [4],log2 fold change [5],log2 fold change [6],log2 fold change [7],log2 fold change [8],log2 fold change [9],log2 fold change [10],log2 fold change [11],log2 fold change [12],log2 fold change [13],log2 fold change [14],log2 fold change [15],log2 fold change [16],log2 fold change [17],log2 fold change [18],log2 fold change [19],log2 fold change [20]
AFDN isoform 5 (UniProt P55196),inactive: -0.012,inactive: 0.035,inactive: -0.06,inactive: -0.135,inactive: -0.16,inactive: -0.06,inactive: 0.044,inactive: -0.008,inactive: -0.045,inactive: 0.054,inactive: -0.154,inactive: -0.009,inactive: -0.099,inactive: -0.025,inactive: 0.008,inactive: 0.019,inactive: 0.079,inactive: -0.012,inactive: -0.052,inactive: -0.068
AKAP12 (UniProt Q02952),inactive: -0.225,inactive: -0.148,inactive: 0.131,inactive: -0.041,inactive: -0.005,inactive: 0.102,inactive: 0.033,inactive: -0.063,inactive: 0.017,inactive: 0.069,inactive: 0.061,inactive: -0.065,inactive: -0.126,inactive: 0.037,inactive: 0.049,inactive: 0.016,inactive: 0.034,inactive: -0.016,inactive: -0.006,inactive: -0.028
AFP (UniProt P02771),inactive: -0.063,inactive: -0.013,inactive: 0.064,inactive: 0.019,inactive: 0.111,inactive: 0.584,inactive: 0.179,inactive: -0.138,inactive: -0.027,inactive: -0.448,inactive: -0.146,inactive: 0.111,inactive: 0.179,inactive: 0.064,inactive: -0.003,inactive: 0.09,inactive: -0.071,inactive: 0.104,inactive: 0.238,inactive: 0.899
AKT2 (UniProt P31751),inactive: 0.021,inactive: 0.049,inactive: -0.037,inactive: -0.144,inactive: -0.145,inactive: -0.108,inactive: 0.019,inactive: -0.034,inactive: -0.185,inactive: 0.037,inactive: -0.008,active: -0.266,active: 1.18,inactive: -0.051,inactive: 0.085,inactive: 0.022,inactive: 0.077,inactive: -0.026,inactive: -0.017,inactive: -0.013
AGO1 (UniProt Q9UL18),inactive: -0.036,inactive: -0.085,inactive: 0.185,inactive: 0.34,inactive: -0.019,inactive: -0.164,inactive: -0.073,inactive: -0.133,inactive: 0.057,inactive: -0.066,inactive: 0.108,inactive: 0.011,inactive: 0.049,inactive: 0.073,inactive: -0.012,inactive: -0.05,active: 0.439,inactive: 0.12,inactive: -0.067,inactive: -0.413
AHCY (UniProt P23526),inactive: 0.016,inactive: -0.015,inactive: 0.01,inactive: 0.012,inactive: 0.054,inactive: -0.012,inactive: 0.031,inactive: -0.01,inactive: -0.008,inactive: 0.024,inactive: 0.061,inactive: 0.016,inactive: 0.059,inactive: 0.032,inactive: -0.006,inactive: -0.015,inactive: 0.02,inactive: -0.059,inactive: -0.007,inactive: -0.01
AKT1 (UniProt P31749),inactive: 0.041,inactive: 0.004,inactive: 0.033,inactive: -0.275,inactive: -0.416,inactive: -0.158,inactive: 0.048,inactive: 0,inactive: -0.136,inactive: 0.033,inactive: -0.085,inactive: -0.276,active: 1.61,inactive: -0.002,inactive: 0.201,inactive: -0.024,inactive: 0.138,inactive: 0.004,inactive: 0.1,inactive: 0.027
ALG9 isoform 3 (UniProt Q9H6U8),inactive: -0.049,inactive: -0.018,inactive: 0.074,inactive: 0,inactive: 0.019,inactive: -0.035,inactive: -0.01,inactive: -0.035,inactive: 0.094,inactive: -0.02,inactive: -0.021,inactive: -0.033,inactive: -0.036,inactive: -0.016,inactive: 0.044,inactive: 0.085,inactive: -0.044,inactive: 0.013,inactive: -0.129,inactive: 0.136
ALDOC (UniProt J3QKP5),inactive: -0.658,inactive: -0.619,inactive: -0.054,inactive: 0.123,inactive: 0.055,inactive: -0.033,inactive: 0.015,inactive: 0.095,inactive: 0.174,inactive: -0.105,inactive: -0.367,inactive: -0.269,inactive: 0.108,inactive: -0.147,inactive: -0.072,inactive: -0.395,inactive: -0.35,inactive: 0,inactive: -0.368,inactive: -0.104
AMDHD2 isoform 3 (UniProt Q9Y303),inactive: -0.007,inactive: -0.008,inactive: -0.053,inactive: -0.011,inactive: -0.038,inactive: 0.041,inactive: 0.05,inactive: 0.053,inactive: -0.123,inactive: 0.023,inactive: 0.011,inactive: -0.037,inactive: 0.031,inactive: 0.005,inactive: -0.03,inactive: 0.012,inactive: 0.017,inactive: -0.021,inactive: -0.059,inactive: -0.017
ALG11 (UniProt Q2TAA5),inactive: -0.078,inactive: 0.086,inactive: 0.001,inactive: -0.037,inactive: 0.005,inactive: 0.129,inactive: -0.072,inactive: 0.028,inactive: -0.016,inactive: 0.066,inactive: -0.052,inactive: 0.032,inactive: -0.093,inactive: -0.019,inactive: 0.01,inactive: -0.038,inactive: 0.039,inactive: 0.008,inactive: -0.002,inactive: -0.08
AK3 (UniProt Q9UIJ7),inactive: -0.044,inactive: -0.036,inactive: 0.017,inactive: 0.017,inactive: 0.019,inactive: -0.011,inactive: 0.019,inactive: -0.009,inactive: 0.007,inactive: 0.053,inactive: -0.009,inactive: -0.056,inactive: -0.033,inactive: -0.038,inactive: -0.021,inactive: -0.023,inactive: 0.02,inactive: 0.017,inactive: -0.038,inactive: -0.015
AHCYL1 (UniProt O43865),inactive: -0.009,inactive: -0.135,inactive: 0.006,inactive: 0.029,inactive: 0.005,inactive: 0.116,inactive: 0.041,inactive: 0.041,inactive: -0.014,inactive: -0.055,inactive: 0.183,inactive: 0.106,inactive: 0.003,inactive: 0.046,inactive: -0.109,inactive: 0.116,inactive: -0.017,inactive: 0.188,inactive: -0.002,inactive: 0.253
ALDOA isoform 2 (UniProt P04075),inactive: 0.023,inactive: -0.018,inactive: -0.013,inactive: 0.025,inactive: 0.041,inactive: -0.004,inactive: -0.002,inactive: -0.039,inactive: -0.019,inactive: 0.02,inactive: 0.081,inactive: 0.009,inactive: 0.049,inactive: 0.052,inactive: 0.002,inactive: -0.028,inactive: 0.022,inactive: -0.041,inactive: -0.024,inactive: 0.013
ALKBH6 isoform 2 (UniProt Q3KRA9),inactive: -0.095,inactive: -0.009,inactive: -0.011,inactive: -0.009,inactive: 0.087,inactive: -0.042,inactive: -0.027,inactive: 0.002,inactive: 0.099,inactive: -0.042,inactive: -0.061,inactive: -0.038,inactive: -0.024,inactive: 0.067,inactive: -0.01,inactive: 0.002,inactive: -0.067,inactive: 0.02,inactive: -0.057,inactive: 0.028
ADK (UniProt P55263),inactive: 0.201,inactive: 0,inactive: 0.122,inactive: 0.208,active: 0.387,inactive: 0.07,inactive: 0.006,inactive: 0.241,inactive: 0.291,inactive: 0.037,inactive: -0.071,inactive: 0.07,inactive: 0.12,inactive: -0.04,inactive: -0.087,inactive: -0.044,inactive: -0.02,inactive: 0.011,inactive: 0.232,inactive: 0.158

# Copied from the list:
# Entry of AFDN isoform 5 (UniProt P55196) under log2 fold change [18]: inactive: -0.012
# Entry of AHCYL1 (UniProt O43865) under log2 fold change [5]: inactive: 0.005
